In the supplement of paper PMC10849652:
This is one part of the list.

The chains behind the UniProt entries cited, without tags or fusion partners. Where a name states a change or a piece, a line headed by the entry shows the natural chain unless it says otherwise.
UniProt Q8IWE2: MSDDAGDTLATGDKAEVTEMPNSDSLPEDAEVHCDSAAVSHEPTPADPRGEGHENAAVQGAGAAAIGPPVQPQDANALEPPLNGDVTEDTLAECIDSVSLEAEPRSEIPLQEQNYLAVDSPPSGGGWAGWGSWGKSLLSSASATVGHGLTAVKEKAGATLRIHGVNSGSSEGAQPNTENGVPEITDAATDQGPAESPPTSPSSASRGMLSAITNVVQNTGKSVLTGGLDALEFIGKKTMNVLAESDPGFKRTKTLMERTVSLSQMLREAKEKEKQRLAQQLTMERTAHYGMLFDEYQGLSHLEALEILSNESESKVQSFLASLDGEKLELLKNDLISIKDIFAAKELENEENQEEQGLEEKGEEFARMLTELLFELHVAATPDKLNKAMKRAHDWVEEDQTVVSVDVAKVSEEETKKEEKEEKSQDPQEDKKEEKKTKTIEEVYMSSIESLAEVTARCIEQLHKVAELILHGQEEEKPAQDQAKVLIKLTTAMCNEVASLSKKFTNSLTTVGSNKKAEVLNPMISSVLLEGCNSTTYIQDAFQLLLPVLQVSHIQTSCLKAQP
UniProt Q9UQ84: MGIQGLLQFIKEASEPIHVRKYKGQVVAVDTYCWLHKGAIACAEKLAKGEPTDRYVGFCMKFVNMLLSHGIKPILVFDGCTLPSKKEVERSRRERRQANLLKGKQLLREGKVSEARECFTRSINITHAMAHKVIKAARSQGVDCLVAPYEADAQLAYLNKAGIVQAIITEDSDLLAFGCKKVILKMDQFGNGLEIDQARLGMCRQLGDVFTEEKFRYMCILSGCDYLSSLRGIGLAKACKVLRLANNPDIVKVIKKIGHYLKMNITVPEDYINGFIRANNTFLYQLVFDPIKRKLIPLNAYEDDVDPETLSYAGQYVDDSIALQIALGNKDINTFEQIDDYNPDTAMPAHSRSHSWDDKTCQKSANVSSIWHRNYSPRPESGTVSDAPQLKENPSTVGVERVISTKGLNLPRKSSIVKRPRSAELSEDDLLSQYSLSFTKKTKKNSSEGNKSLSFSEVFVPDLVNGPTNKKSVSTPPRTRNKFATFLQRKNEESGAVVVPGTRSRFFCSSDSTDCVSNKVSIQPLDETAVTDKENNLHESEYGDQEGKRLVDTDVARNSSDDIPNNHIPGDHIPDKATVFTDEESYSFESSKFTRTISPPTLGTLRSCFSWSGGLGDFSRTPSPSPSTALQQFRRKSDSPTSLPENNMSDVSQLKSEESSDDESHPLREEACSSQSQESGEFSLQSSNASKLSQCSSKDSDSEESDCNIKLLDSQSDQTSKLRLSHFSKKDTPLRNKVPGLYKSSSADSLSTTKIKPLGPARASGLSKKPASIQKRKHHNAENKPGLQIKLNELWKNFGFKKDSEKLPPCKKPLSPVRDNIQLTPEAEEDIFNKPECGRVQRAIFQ
UniProt Q5HYJ3: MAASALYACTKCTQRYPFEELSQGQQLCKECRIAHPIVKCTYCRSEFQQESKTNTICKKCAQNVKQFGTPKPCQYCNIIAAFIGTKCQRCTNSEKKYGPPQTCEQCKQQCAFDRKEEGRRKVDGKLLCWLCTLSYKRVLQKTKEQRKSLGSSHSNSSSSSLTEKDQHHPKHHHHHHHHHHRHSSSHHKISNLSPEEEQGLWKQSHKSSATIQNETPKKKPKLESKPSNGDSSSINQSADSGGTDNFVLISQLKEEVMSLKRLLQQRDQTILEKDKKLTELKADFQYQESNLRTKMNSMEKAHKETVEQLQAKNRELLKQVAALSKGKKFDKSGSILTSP
UniProt Q6P1L5: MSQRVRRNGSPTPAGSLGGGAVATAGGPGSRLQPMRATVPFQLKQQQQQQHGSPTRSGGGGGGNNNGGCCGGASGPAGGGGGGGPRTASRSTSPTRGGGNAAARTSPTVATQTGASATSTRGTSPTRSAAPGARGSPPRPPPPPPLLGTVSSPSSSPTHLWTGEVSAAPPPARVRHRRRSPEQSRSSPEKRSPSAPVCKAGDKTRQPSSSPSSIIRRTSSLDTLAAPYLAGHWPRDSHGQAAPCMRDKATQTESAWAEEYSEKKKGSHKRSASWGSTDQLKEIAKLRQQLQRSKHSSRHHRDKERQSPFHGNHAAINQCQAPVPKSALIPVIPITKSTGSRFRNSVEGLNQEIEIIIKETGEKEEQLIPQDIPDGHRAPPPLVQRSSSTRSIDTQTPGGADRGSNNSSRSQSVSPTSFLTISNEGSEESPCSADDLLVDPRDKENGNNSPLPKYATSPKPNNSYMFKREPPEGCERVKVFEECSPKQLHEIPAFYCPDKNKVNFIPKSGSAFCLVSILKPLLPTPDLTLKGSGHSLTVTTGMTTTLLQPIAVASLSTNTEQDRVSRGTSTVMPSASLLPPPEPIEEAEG
UniProt Q96PZ2, whole entry, looked up: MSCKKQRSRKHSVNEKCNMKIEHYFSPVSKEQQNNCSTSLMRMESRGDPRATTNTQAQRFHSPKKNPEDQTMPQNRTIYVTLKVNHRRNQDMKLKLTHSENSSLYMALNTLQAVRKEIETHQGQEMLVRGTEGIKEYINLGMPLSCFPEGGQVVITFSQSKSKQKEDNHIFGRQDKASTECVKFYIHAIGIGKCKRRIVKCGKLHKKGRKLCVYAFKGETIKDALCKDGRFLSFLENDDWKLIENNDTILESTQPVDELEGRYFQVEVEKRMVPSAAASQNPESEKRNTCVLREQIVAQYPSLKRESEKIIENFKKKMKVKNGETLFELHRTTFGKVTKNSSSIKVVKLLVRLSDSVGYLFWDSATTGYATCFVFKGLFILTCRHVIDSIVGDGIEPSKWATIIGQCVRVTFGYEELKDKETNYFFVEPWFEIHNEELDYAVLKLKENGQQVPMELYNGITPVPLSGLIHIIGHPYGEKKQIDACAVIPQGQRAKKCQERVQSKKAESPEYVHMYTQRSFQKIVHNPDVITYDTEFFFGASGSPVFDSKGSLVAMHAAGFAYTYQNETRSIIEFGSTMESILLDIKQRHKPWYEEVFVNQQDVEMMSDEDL
UniProt Q9Y5Q0: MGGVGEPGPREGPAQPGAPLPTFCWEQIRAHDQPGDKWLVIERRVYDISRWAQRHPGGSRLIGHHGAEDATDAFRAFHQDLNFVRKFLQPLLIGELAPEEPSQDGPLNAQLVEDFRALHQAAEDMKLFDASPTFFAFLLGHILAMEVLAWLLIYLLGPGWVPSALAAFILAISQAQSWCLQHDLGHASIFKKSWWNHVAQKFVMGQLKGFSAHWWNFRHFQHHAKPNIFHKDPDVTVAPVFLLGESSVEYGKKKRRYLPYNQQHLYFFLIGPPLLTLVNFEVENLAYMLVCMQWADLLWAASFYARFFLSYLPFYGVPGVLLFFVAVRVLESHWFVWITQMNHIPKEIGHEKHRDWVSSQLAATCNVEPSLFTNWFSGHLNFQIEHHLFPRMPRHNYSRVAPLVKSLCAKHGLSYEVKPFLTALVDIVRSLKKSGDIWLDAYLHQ
UniProt Q8N612: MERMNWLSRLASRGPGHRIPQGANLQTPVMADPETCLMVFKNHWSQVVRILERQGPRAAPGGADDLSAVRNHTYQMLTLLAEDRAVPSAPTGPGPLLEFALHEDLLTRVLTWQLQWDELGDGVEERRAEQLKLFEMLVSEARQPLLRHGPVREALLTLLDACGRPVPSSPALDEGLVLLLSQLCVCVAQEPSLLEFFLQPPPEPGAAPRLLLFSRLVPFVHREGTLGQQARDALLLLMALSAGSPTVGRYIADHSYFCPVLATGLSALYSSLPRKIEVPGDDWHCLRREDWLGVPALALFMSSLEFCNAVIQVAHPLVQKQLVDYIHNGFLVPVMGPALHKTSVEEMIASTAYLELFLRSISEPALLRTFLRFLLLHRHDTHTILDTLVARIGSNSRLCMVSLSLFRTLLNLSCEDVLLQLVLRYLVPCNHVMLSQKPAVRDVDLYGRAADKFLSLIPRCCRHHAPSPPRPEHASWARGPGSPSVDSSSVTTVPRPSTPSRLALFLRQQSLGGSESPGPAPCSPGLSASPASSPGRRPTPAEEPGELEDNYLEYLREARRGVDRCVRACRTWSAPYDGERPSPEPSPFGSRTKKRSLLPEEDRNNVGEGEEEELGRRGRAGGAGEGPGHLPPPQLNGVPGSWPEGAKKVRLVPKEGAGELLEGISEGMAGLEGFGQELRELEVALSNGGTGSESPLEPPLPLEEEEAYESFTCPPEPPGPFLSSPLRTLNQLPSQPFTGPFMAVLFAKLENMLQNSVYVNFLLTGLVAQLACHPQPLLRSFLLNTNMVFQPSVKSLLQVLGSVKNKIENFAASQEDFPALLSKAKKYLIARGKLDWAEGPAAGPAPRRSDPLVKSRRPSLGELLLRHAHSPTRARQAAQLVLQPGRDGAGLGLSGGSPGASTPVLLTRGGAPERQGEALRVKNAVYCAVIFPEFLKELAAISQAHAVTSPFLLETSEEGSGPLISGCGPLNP
UniProt Q14153: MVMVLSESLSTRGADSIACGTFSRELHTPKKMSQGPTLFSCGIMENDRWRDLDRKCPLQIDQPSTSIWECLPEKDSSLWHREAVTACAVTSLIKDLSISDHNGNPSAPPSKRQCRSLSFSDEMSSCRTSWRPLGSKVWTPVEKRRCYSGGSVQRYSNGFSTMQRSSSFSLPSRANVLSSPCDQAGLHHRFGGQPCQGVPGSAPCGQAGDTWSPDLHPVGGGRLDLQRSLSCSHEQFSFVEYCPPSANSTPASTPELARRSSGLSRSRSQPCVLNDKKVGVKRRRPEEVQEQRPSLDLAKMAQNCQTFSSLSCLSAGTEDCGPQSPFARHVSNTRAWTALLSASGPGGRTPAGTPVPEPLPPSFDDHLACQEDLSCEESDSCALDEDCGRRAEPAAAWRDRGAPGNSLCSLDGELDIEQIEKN
UniProt Q7Z309: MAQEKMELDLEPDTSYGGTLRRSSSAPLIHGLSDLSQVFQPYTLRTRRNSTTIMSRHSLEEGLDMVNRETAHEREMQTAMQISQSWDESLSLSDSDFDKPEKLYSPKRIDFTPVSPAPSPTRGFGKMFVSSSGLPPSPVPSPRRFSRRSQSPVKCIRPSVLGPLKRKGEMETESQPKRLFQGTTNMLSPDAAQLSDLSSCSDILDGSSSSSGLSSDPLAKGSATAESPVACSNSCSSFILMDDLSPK

Tests used:
Assay in all cases: log2 fold change, soluble protein after heating vs DMSO (PISA); higher = thermal stabilisation; K562 lysate, 10 uM; active = over 0.2 and 3.5 SD of the protein, either way, in both replicates (recomputed)
erlotinib = compound: C#Cc1cccc(Nc2ncnc3cc(OCCOC)c(OCCOC)cc23)c1 [erlotinib]
Method in brief: (§1)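 Quantification was by TMTpro 16plex LC-MS/MS with equalised channel sums, applied to the supernatant after 21,000xg for 90 min. Samples were crude K562 extract at 1 mg/mL protein in PBS pH 7.4 with 1 mM MgCl2, treated with 10 μM compound for 30 min, heated for 3 min across 48°C-58°C, pooled and brought to 0.5% NP-40 at 4°C. Values are log-two fold changes in thermal stability relative to solvent controls, from duplicates.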

[1] = compound: C/C(=N\NC(=O)C1=CC(=CC=C1)S(=O)(=O)N2CCOCC2)/C3=C(C=CC(=C3)Cl)O
Method in brief: as §1

[2] = compound: C1=CC(=CC=C1C2=NC3=C(N2)C=C(C=C3)C(=O)N)OC4=CC=C(C=C4)Cl
Method in brief: as §1

[3] = compound: C1=CC2=C(C=CC(=C2)/C=C\3/C(=O)NC(=NCC4=CC=CS4)S3)N=C1
Method in brief: as §1

[4] = compound: C1=CC2=NC=CN=C2C=C1/C=C/3\C(=O)NC(=O)S3
Method in brief: as §1

[5] = compound: C1=CC=C(C=C1)C2=NC(=C(N2)C3=CC=NC=C3)C4=CC(=C(C=C4)Cl)O
Method in brief: as §1

[6] = compound: C1=CC=C2C(=C1)C3=NNC4=CC=CC(=C43)C2=O
Method in brief: as §1

[7] = compound: C1CCN(C1)C(=O)NC2=CC=CC(=C2)NC3=NC=C(C(=N3)NCCC4=CN=CN4)Br
Method in brief: as §1

[8] = compound: C1CN(CCC1(CC2=CC=C(C=C2)Cl)N)C3=NC=NC4=C3C=CN4
Method in brief: as §1

IRAK-1-4 Inhibitor I = compound: C1COCCN1CCN2C3=CC=CC=C3N=C2NC(=O)C4=CC(=CC=C4)[N+](=O)[O-] [IRAK-1-4 Inhibitor I]
Method in brief: as §1

ibrutinib = compound: C=CC(=O)N1CCC[C@@H](n2nc(-c3ccc(Oc4ccccc4)cc3)c3c(N)ncnc32)C1 [ibrutinib]
Method in brief: as §1

[9] = compound: CC(=O)c1cnc2ccc(-c3cc(Cl)c(O)c(Cl)c3)nc2c1N[C@H]1CC[C@H](CN(C)C)CC1
Method in brief: as §1

ralimetinib = compound: CC(C)(C)Cn1c(N)nc2ccc(-c3[nH]c(C(C)(C)C)nc3-c3ccc(F)cc3)nc21 [ralimetinib]
Method in brief: as §1

[10] = compound: CC(C)(O)CC(=O)NCCn1ccc2ncnc(Nc3ccc(Oc4cccc(C(F)(F)F)c4)c(Cl)c3)c21
Method in brief: as §1

[11] = compound: CC(C)C1=C2N=C(C=C(N2N=C1)NCC3=CC=CC=C3)NCCCCCCN
Method in brief: as §1

[12] = compound: CC1=C(C2=C(C=C1)C(=O)C3=CC=CC=C3N2CCCN)C
Method in brief: as §1

[13] = compound: CC1=C(C=C(C=C1)NC(=O)C2=CC(=CC=C2)N(C)C)NC(=O)C3=CC=C(C=C3)O
Method in brief: as §1

[14] = compound: CC1=CC=C(C=C1)SC2=C3C=C(SC3=CN=C2)C(=O)N
Method in brief: as §1

[15] = compound: CC1=C(C(CC(=O)N1)C2=CC=C(C=C2)C(F)(F)F)C(=O)NC3=C(C=C4C(=C3)C=NN4)F
Method in brief: as §1

[16] = compound: CC1=C(C=C(C=C1)NC(=O)C2=CC(=CC=C2)C(C)(C)C#N)NC3=CC4=C(C=C3)N=CN(C4=O)C
Method in brief: as §1

Measured: log2 fold change

FAM114A1 (UniProt Q8IWE2)
inactive: erlotinib 0.032 | [1] -0.294 | [2] -0.069 | [3] -0.075 | [4] -0.178 | [5] -0.15 | [6] -0.103 | [7] -0.037 | [8] -0.074 | IRAK-1-4 Inhibitor I 0.148 | ibrutinib 0.048 | [9] -0.056 | ralimetinib 0.179 | [10] 0.106 | [11] 0.033 | [12] 0.068 | [13] -0.188 | [14] 0.008

EXO1 (UniProt Q9UQ84)
inactive: erlotinib 0.139 | [1] -0.059 | [2] -0.093 | [3] 0.026 | [5] 0.005 | [6] -0.279 | IRAK-1-4 Inhibitor I 0.038 | [9] 0.06 | ralimetinib -0.049 | [10] -0.291 | [11] -0.114 | [15] 0.073 | [16] -0.002 | [13] -0.01 | [14] -0.045

FAM76B (UniProt Q5HYJ3)
inactive: erlotinib -0.027 | [1] -0.35 | [2] -0.016 | [3] -0.137 | [5] -0.053 | [6] 0.046 | [7] -0.019 | [8] 0.061 | IRAK-1-4 Inhibitor I -0.008 | [9] -0.025 | ralimetinib -0.005 | [10] -0.01 | [11] -0.06 | [15] -0.012 | [12] -0.02 | [16] 0.023 | [13] -0.002 | [14] -0.011

FAM117B (UniProt Q6P1L5)
inactive: erlotinib -0.13 | [1] -0.27 | [2] -0.021 | [3] 0.006 | [5] 0.187 | [6] -0.036 | IRAK-1-4 Inhibitor I 0.184 | [9] 0.024 | ralimetinib -0.047 | [10] -0.11 | [11] 0.222 | [15] 0.01 | [12] 0.001 | [16] 0.026 | [13] 0.112 | [14] 0.001

FAM111A (UniProt Q96PZ2)
inactive: erlotinib -0.025 | [1] -0.04 | [2] -0.01 | [3] 0.002 | [5] -0.088 | [6] -0.088 | [7] 0.046 | [8] 0.022 | IRAK-1-4 Inhibitor I -0.088 | [9] 0.171 | ralimetinib 0.116 | [10] 0.083 | [11] 0.125 | [12] -0.106 | [16] -0.093 | [13] 0.022 | [14] -0.244

FADS3 (UniProt Q9Y5Q0)
inactive: erlotinib 0.075 | [1] -0.355 | [2] -0.052 | [3] 0.118 | [4] 0.016 | [5] -0.072 | [6] -0.124 | [7] 0.109 | [8] -0.291 | IRAK-1-4 Inhibitor I -0.097 | ibrutinib 0.11 | [9] -0.02 | ralimetinib -0.123 | [10] 0.075 | [11] -0.051 | [15] 0.074 | [12] -0.49 | [16] 0.015 | [13] 0.017 | [14] -0.017

FAM160A2 isoform 2 (UniProt Q8N612)
inactive: erlotinib -0.021 | [1] -0.006 | [2] -0.023 | [3] -0.022 | [4] -0.085 | [6] -0.062 | [7] 0.051 | [8] 0.105 | ibrutinib 0.075 | [11] -0.154 | [15] 0.137 | [12] -0.055 | [16] -0.006

FAM193A, A0A1B0GVL4
inactive: erlotinib 0.089 | [1] 0.239 | [2] -0.015 | [3] 0.111 | [4] 0.035 | [6] 0.052 | [7] -0.065 | [8] -0.052 | ibrutinib 0.157 | [9] 0.086 | [11] 0.146 | [15] 0.063 | [16] 0.05 | [14] 0.06

FAM53B (UniProt Q14153)
inactive: erlotinib 0.057 | [1] -0.087 | [2] -0.03 | [3] 0.015 | [4] -0.004 | [5] -0.047 | [6] -0.024 | [7] -0.034 | [8] 0.006 | IRAK-1-4 Inhibitor I 0.203 | ibrutinib 0.037 | ralimetinib -0.299 | [10] -0.084 | [11] 0.037 | [15] 0.098 | [12] 0.161 | [16] -0.07 | [13] -0.263

FAM122B isoform 3 (UniProt Q7Z309)
inactive: erlotinib 0.086 | [1] 0.01 | [2] -0.212 | [3] 0.039 | [4] -0.055 | [5] -0.056 | [6] -0.09 | [7] -0.239 | [8] -0.416 | IRAK-1-4 Inhibitor I 0.108 | ibrutinib 0.082 | [9] -0.056 | ralimetinib -0.05 | [10] -0.068 | [11] 0 | [12] 0.154 | [16] 0.021 | [13] 0.013 | [14] 0.002
